# Publication PMC6801706
# Results are given in words; binding and its absence hold for the method and conditions named.
# Biological target: T1, glycogen synthase kinase 2 (GSK2) (rice (Oryza sativa L.)) (UniProt Q60EZ2)
# T1 sequence: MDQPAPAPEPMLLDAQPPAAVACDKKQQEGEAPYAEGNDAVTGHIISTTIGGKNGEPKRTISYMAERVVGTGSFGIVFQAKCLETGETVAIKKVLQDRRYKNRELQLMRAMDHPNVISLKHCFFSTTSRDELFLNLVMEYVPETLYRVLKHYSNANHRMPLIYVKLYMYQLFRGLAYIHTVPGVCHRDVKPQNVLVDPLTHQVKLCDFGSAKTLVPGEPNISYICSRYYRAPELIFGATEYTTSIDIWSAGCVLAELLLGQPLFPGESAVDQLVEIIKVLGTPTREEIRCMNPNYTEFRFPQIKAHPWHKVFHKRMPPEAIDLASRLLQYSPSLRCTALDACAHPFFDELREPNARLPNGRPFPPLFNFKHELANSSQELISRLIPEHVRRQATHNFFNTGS
# Assay: two-hybrid; yeast strain AH109; bait pGBKT7-GSK2, prey ABIL1 or ABIL2 in pGADT7; selection on SD-Trp/-Leu/-His medium
substance,measurement,value
ABI-LIKE 2 (ABIL2) (rice (Oryza sativa L.)),binding,no binding
